Experimental data as given in the M2OR odorant receptor database.
The list shows a part of the results. The calls were merged from several studies; some rest on single wells.

Experiments:
Details in all cases: stereoisomer not certain
O52I2 = test system: T1, O52I2
T1 sequence (whole entry): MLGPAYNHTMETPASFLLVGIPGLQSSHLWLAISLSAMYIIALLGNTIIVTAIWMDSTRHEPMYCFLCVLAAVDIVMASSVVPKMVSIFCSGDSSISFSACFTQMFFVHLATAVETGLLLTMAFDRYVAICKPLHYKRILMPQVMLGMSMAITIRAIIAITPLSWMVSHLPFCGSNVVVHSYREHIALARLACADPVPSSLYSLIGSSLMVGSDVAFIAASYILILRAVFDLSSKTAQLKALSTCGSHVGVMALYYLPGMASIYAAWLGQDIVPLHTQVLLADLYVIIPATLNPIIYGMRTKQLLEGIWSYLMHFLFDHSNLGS
Summary of the method: (§1)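 Values were gathered from published papers (main text and supplementary material), with extra details requested from the original authors when needed, and checked for typos and inconsistencies. Each receptor–molecule pair is called responsive (active) if the original authors judged the measured signal statistically different from baseline, and non-responsive (inactive) otherwise. Assay methods varied by source, often transient mammalian cell-line luciferase assays. Recorded details include cell line, G-protein, co-transfected protein and tags.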

O52J3 = test system: T2, O52J3
T2 sequence (whole entry): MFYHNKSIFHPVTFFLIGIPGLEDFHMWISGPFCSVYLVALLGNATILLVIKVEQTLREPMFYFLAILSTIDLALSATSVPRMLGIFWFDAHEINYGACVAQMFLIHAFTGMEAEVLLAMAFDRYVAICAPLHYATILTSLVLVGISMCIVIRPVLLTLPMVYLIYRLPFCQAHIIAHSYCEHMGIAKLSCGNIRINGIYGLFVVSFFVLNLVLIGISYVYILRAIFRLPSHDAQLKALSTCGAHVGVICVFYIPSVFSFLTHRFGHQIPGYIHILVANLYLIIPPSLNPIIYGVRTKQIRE
Summary of the method: as §1

O52L1 = test system: T3, O52L1
T3 sequence (whole entry): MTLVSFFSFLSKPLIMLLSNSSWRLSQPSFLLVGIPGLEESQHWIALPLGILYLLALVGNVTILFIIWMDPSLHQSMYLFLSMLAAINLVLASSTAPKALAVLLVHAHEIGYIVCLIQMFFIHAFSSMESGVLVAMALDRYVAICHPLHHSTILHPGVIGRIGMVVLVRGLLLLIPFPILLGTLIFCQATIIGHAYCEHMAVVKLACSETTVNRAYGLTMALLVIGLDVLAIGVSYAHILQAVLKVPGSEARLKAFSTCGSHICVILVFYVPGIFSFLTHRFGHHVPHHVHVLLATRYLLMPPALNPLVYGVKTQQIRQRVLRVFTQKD
Summary of the method: as §1

O52L2 = test system: T4, O52L2
T4 sequence (whole entry): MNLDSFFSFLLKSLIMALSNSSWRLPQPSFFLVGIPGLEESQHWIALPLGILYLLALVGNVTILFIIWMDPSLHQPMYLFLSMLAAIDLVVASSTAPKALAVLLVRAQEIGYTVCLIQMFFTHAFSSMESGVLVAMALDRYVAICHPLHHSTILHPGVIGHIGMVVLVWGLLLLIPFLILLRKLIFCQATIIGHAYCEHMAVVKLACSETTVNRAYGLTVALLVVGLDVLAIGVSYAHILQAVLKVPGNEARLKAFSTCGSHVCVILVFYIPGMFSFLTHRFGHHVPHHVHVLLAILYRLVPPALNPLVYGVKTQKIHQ
Summary of the method: as §1

O52M1 = test system: T5, O52M1
T5 sequence (whole entry): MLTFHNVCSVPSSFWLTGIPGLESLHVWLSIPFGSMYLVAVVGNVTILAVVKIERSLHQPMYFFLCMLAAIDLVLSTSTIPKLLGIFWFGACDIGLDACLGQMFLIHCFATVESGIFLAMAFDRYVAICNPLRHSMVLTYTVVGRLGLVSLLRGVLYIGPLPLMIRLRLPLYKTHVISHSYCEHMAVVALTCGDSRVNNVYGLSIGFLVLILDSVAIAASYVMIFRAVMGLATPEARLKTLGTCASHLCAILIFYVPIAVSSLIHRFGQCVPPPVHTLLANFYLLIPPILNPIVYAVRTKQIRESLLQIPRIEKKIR
Summary of the method: as §1

O52N1 = test system: T6, O52N1
T6 sequence (whole entry): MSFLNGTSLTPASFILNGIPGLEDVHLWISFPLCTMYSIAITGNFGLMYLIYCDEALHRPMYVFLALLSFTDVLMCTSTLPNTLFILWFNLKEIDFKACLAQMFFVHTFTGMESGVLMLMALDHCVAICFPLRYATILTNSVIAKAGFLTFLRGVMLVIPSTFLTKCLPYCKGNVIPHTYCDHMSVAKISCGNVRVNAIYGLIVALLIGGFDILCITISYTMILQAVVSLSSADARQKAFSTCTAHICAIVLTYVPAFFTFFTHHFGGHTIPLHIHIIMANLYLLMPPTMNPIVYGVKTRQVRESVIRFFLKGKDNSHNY
Summary of the method: as §1

O52N2 = test system: T7, O52N2
T7 sequence (whole entry): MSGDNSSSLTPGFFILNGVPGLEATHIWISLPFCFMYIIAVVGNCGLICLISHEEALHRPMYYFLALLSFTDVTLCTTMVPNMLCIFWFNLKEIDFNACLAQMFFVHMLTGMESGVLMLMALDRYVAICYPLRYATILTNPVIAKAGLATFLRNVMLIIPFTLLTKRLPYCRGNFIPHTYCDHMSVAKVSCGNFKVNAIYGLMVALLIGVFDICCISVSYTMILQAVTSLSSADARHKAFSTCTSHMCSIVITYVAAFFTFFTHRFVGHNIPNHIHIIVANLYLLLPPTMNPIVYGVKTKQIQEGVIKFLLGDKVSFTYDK
Summary of the method: as §1

O52N4 = test system: T8, O52N4
T8 sequence (whole entry): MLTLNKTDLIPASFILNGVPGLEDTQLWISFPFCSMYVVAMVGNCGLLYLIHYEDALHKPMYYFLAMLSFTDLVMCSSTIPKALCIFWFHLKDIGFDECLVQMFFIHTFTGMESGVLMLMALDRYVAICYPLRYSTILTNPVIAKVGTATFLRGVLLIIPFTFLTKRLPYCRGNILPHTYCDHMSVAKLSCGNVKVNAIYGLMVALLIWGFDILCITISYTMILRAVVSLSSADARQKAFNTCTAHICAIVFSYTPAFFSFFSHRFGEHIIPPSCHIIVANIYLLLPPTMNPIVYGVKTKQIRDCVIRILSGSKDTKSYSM
Summary of the method: as §1

O52P1 = test system: T9, O52P1
T9 sequence (whole entry): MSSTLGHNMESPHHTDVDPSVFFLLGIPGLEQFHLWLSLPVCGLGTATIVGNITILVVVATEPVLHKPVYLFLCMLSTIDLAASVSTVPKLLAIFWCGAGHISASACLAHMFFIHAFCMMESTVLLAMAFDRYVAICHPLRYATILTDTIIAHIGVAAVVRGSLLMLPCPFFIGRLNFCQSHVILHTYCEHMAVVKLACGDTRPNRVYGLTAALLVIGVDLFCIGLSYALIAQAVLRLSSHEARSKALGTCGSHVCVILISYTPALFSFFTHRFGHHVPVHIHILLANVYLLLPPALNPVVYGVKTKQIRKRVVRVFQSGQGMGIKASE
Summary of the method: as §1

O52R1 = test system: T10, O52R1
T10 sequence (whole entry): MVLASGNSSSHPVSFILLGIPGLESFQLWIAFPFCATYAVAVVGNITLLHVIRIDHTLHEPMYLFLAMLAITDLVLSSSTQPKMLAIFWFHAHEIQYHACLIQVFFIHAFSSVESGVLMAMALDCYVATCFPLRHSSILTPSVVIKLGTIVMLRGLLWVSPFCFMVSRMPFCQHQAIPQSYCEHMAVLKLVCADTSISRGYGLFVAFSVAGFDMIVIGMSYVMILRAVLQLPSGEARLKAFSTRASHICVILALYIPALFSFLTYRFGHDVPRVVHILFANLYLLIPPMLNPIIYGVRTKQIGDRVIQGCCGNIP
Summary of the method: as §1

O52W1 = test system: T11, O52W1
T11 sequence (whole entry): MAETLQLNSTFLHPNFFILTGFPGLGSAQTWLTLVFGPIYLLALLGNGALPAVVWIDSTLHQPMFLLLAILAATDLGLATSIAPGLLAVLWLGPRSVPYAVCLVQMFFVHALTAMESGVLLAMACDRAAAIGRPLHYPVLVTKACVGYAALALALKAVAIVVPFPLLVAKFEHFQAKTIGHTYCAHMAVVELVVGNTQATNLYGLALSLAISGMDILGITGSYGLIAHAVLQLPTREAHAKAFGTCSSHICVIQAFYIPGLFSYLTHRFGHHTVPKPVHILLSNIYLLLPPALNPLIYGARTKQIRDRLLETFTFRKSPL
Summary of the method: as §1

O56A3 = test system: T12, O56A3
T12 sequence (whole entry): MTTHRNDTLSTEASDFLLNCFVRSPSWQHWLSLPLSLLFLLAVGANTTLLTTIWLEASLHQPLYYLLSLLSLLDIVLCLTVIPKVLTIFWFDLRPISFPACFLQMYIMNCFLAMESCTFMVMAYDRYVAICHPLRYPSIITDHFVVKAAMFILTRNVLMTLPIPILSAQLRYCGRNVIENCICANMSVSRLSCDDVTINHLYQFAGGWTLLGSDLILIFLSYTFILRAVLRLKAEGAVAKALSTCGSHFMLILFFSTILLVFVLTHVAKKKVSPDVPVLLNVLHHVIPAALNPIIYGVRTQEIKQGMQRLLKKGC
Summary of the method: as §1

O56B1 = test system: T13, O56B1
T13 sequence (whole entry): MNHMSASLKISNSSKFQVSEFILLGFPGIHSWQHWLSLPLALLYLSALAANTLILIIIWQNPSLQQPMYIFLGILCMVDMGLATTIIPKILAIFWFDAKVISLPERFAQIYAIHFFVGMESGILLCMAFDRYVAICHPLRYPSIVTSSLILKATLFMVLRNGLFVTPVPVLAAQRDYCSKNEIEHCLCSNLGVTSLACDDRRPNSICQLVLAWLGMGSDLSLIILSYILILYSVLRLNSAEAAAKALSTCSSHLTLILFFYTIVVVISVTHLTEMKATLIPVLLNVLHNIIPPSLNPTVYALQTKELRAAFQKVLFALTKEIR
Summary of the method: as §1

O56B4 = test system: T14, O56B4
T14 sequence (whole entry): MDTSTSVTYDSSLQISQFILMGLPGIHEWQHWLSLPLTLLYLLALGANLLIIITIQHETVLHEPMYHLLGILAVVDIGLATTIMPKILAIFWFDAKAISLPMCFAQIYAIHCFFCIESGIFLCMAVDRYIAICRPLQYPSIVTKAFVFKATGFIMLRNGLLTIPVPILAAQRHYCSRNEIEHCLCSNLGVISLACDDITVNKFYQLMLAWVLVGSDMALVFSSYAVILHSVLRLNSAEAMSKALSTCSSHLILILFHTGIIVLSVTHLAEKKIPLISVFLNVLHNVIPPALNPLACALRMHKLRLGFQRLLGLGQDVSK
Summary of the method: as §1

O5AC2 = test system: T15, O5AC2
T15 sequence (whole entry): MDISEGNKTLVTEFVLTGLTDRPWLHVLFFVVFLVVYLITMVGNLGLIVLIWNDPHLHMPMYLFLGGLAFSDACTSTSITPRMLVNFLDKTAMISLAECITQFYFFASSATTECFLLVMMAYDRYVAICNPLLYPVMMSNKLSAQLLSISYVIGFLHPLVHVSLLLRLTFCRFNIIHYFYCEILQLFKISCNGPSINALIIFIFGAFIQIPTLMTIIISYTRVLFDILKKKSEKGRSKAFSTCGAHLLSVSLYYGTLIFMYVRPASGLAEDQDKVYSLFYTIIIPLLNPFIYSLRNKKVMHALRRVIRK
Summary of the method: as §1

O5AK2 = test system: T16, O5AK2
T16 sequence (whole entry): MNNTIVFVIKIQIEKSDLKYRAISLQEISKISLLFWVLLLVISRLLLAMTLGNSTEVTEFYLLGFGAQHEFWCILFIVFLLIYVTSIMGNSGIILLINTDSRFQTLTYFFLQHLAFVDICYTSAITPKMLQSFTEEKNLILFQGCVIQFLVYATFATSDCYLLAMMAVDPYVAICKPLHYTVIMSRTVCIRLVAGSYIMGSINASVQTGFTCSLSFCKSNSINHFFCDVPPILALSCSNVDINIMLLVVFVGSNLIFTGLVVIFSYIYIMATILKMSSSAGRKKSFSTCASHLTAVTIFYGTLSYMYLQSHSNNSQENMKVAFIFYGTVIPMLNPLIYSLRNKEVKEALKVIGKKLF
Summary of the method: as §1

O5AK3 = test system: T17, O5AK3
T17 sequence (whole entry): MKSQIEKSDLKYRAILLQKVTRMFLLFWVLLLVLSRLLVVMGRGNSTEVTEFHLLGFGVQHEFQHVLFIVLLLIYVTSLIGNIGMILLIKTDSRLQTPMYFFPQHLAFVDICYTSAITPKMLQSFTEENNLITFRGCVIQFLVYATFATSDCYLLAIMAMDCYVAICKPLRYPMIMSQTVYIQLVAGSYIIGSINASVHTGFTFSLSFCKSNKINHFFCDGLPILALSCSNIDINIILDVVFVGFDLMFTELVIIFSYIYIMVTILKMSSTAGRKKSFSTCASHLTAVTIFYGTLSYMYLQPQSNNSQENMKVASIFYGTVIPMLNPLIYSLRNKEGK
Summary of the method: as §1

| SMILES | odorant receptor agonist call (O52I2) | odorant receptor agonist call (O52J3) | odorant receptor agonist call (O52L1) | odorant receptor agonist call (O52L2) | odorant receptor agonist call (O52M1) | odorant receptor agonist call (O52N1) | odorant receptor agonist call (O52N2) | odorant receptor agonist call (O52N4) | odorant receptor agonist call (O52P1) | odorant receptor agonist call (O52R1) | odorant receptor agonist call (O52W1) | odorant receptor agonist call (O56A3) | odorant receptor agonist call (O56B1) | odorant receptor agonist call (O56B4) | odorant receptor agonist call (O5AC2) | odorant receptor agonist call (O5AK2) | odorant receptor agonist call (O5AK3) |
| --- | --- | --- | --- | --- | --- | --- | --- | --- | --- | --- | --- | --- | --- | --- | --- | --- | --- |
| C=CCc1ccc(OC(C)=O)c(OC)c1 | inactive | inactive | inactive | inactive | inactive | inactive | active | inactive | inactive | active | inactive | inactive | inactive | inactive | inactive | inactive | inactive |
| CC(C)CCC(=O)O | inactive | inactive | inactive | inactive | inactive | inactive | inactive | inactive | inactive | inactive | inactive | inactive | inactive | inactive | inactive | inactive | inactive |
| CCCCCCCOC(C)=O | inactive | inactive | inactive | inactive | inactive | inactive | inactive | inactive | inactive | inactive | inactive | inactive | inactive | inactive | inactive | inactive | inactive |
